# Reference: PubChem BioAssay AID488835 (Broad Institute, 2010)
# Amino acid sequences for entries named in this document (tags omitted). A change or cut given only in a name is not applied to a line headed by its entry.
# UniProt Q9H3R0: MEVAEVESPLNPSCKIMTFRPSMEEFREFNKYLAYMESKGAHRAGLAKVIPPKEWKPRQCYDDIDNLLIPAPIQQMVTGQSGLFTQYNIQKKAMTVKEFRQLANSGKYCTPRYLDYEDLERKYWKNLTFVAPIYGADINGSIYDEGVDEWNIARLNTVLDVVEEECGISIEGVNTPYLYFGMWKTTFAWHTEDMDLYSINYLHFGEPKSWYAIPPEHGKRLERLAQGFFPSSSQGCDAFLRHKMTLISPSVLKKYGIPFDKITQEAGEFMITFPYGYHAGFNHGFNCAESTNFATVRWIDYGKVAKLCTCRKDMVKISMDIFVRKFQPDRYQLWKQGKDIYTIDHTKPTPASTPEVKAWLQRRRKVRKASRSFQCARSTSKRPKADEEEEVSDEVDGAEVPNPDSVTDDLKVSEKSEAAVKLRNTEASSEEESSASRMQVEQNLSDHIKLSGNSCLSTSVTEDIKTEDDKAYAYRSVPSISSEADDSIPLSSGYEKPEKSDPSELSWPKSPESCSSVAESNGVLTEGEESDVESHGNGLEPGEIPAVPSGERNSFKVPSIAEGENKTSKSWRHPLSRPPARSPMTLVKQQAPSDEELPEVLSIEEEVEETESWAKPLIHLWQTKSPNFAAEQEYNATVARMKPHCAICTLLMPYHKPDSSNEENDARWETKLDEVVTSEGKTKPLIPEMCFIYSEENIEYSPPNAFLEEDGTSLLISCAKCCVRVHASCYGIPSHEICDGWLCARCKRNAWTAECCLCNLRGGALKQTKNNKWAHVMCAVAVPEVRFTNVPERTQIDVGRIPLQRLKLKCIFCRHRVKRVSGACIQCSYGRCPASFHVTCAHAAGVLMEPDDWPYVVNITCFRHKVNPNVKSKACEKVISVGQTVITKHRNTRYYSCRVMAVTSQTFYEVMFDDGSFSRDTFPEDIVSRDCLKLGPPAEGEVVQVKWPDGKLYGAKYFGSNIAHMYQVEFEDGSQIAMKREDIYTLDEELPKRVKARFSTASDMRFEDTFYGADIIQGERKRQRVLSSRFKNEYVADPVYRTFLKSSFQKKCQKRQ
# Among all 1,400 compounds or so, about 140 (10%) were called active.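 How the source made its calls: active means Half-maximal inhibitory dose from the fit at or below ten times the top valid tested dose; inconclusive means Invalid fit, or flat curve showing 30 to 70% inhibition; inactive means the rest.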 Only a part is listed here, and it is no random draw. Results with a measured potency or affinity are listed apart.
# Biological target: Lysine-specific demethylase 4C (Homo sapiens) (UniProt Q9H3R0)
# Assay: inhibition of JMJD2C H3K9me3 demethylation – biochemical, DELFIA europium, cherry-picked samples, dose response (AID 488835);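 further: signal is the H3K9me2 demethylation product detected by a dimethyl-specific antibody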
# Details: GST-JMJD2C(1-420); at 6 µM (top of the series) unless noted
row,SMILES,"activity change, negative = inhibition"
1,Cc1cccc(N2C(=O)NC(=O)/C(=C/c3ccc(N4CCOCC4)cc3)C2=O)c1,inactive: -0.79%
2,CN1CCN(c2ccc(C=O)cc2)CC1,inactive: 3.33%
3,C=CCC1C(=O)NC(=S)NC1=O,inactive: -4.69%
4,CN(C)[C@@H]1C(=O)C(C(N)=O)=C(O)[C@@]2(O)C(=O)C3=C(O)c4c(O)cccc4[C@@](C)(O)C3C[C@@H]12 (stereo not given in full),inactive: 1.41%
5,COc1cccc(N2C(=O)NC(=O)/C(=C/c3ccc4c(c3)Cc3ccccc3-4)C2=O)c1,inactive: -11.6%
6,O=C(c1cccs1)N1C2CCC1CC(O)(c1cccnc1)C2 (stereo not given),inactive: 2.1%
7,Cc1sc2c(c1C)C(c1ccc(C(C)(C)C)cc1)=NCC(=O)N2CC(=O)Nc1nccs1,inactive: 1.88%
8,CC(C)(C)[C@]1(O)C[C@@H]2OC(=O)C[C@@]23C(=O)O[C@@H]2OC(=O)[C@@H](O)C213 (stereo not given in full),inactive: 2.46% [at 1.6 µM]
9,CCCCCSc1cc(O)c(C(CNC)C(C)C)cc1OC (stereo not given),inactive: 8.89%
10,C[C@@H]1CCC2[C@@H](C)C(=O)O[C@@H]3OC4(C)CCC1[C@@]23OO4 (stereo not given in full),inactive: -3.3%
11,CCN(CC)c1ccc(/C=C2\C(=O)NC(=O)N(CC3CCCO3)C2=O)cc1 (stereo not given),inactive: -4.96%
12,CN(C)c1ccc(/C=C2\C(=O)NC(=O)N(CCc3ccc(F)cc3)C2=O)cc1,inactive: -9%
13,COCc1cc(OC(=O)N(C)C)nc2c1c(C)nn2C,inactive: 1.34% [at 1.6 µM]
14,Cc1ccc2[nH]c(=S)n(-c3cccnc3)c(=O)c2c1,inactive: 1.94% [at 1.6 µM]
15,N/C(=N\[N+](=O)[O-])N1CCN(C(=O)c2ccccc2)CC1,inactive: 4.19%
16,CC(=NCc1ccc(F)cc1)c1c(O)n(C)c(=O)n(C)c1=O,inactive: -2.27%
17,Cc1[nH]c2ccc(OC(F)(F)F)cc2c1CCNCc1cccc([N+](=O)[O-])c1,inactive: -2.04%
18,O=C1NC(=S)NC(=O)C1C1CCCCC1,inactive: -7.35%

row,SMILES,"activity change, negative = inhibition"
1,O=C1NC(=S)N(C2CC2)C(=O)/C1=C/c1ccc2c(c1)CCN2CCCCl,inactive: -6.44%
2,O=P(OCC(F)(F)C(F)F)(N1CCCCC1)N1CCCCC1,inactive: 20.6%
3,CCN1C(=O)NC(=O)/C(=C\c2cn(CC(=O)N3CCCCC3)c3ccccc23)C1=O,inactive: 0.399%
4,COc1cc(Br)cc(CN2CCN(C)CC2)c1O,inactive: 3.64%
5,Cc1ccc2nc3c(cc2c1)CC1(C(=O)N(C)C(=O)N(C)C1=O)C1CCCCN31 (stereo not given),inactive: -3.67%
6,CN1CCN(c2nc3ccccn3c(=O)c2C=C2C(=O)N(C)C(=O)N(C)C2=O)CC1,inactive: -6.12%
7,CCN1CCN(c2ccc([N+](=O)[O-])cc2C=C2C(=O)NC(=O)NC2=O)CC1,inactive: -3.77%
8,COC(=O)C1=C(c2ccc(OCc3ccccc3)cc2)C[C@@H]2CC[C@H]1N2C(=O)NCc1ccc([N+](=O)[O-])cc1,inactive: 4.6%
9,c1ccc2c3c(ccc2c1)OCC1CONC31 (stereo not given),inactive: 6.65%
10,CC1C(c2cccs2)=[N+]([O-])C(C)(C(=O)c2ccc(Cl)cc2)N1O (stereo not given),inactive: 0.0602%
11,O=C1NC(=O)N(Cc2ccccc2)C(=O)/C1=C/C=C/c1ccco1,inactive: -4.71%
12,COc1ccc(N2C(=O)NC(=O)/C(=C/c3cccc(OC(=O)c4cccs4)c3)C2=O)cc1Cl,inactive: -1.93%
13,CCOC(=O)/C(=N\Nc1ccccc1)N1CC1,inactive: 5.53%
14,CN(C)c1ccc(/C=C2/C(=O)NC(=O)N(Cc3ccco3)C2=O)cc1,inactive: -4.33%
15,CCC(=NCC1CCCO1)c1c(O)[nH]c(=O)[nH]c1=O (stereo not given),inactive: 0.744%
16,C=CCn1c(O)c(/C(C)=N/NC(=S)Nc2ccccc2)c(=O)[nH]c1=O,inactive: 0.744%
17,CCc1ccc(N2C(=O)NC(=O)/C(=C\c3cc(C)n(-c4cc(C(=O)O)cc(C(=O)O)c4)c3C)C2=O)cc1,inactive: -5.26%

# Part of the list above in order of SMILES length, rising.
row,SMILES,"activity change, negative = inhibition"
9,c1ccc2c3c(ccc2c1)OCC1CONC31 (stereo not given),inactive: 6.65%
4,COc1cc(Br)cc(CN2CCN(C)CC2)c1O,inactive: 3.64%
2,O=P(OCC(F)(F)C(F)F)(N1CCCCC1)N1CCCCC1,inactive: 20.6%
11,O=C1NC(=O)N(Cc2ccccc2)C(=O)/C1=C/C=C/c1ccco1,inactive: -4.71%
14,CN(C)c1ccc(/C=C2/C(=O)NC(=O)N(Cc3ccco3)C2=O)cc1,inactive: -4.33%
16,C=CCn1c(O)c(/C(C)=N/NC(=S)Nc2ccccc2)c(=O)[nH]c1=O,inactive: 0.744%
7,CCN1CCN(c2ccc([N+](=O)[O-])cc2C=C2C(=O)NC(=O)NC2=O)CC1,inactive: -3.77%
3,CCN1C(=O)NC(=O)/C(=C\c2cn(CC(=O)N3CCCCC3)c3ccccc23)C1=O,inactive: 0.399%
12,COc1ccc(N2C(=O)NC(=O)/C(=C/c3cccc(OC(=O)c4cccs4)c3)C2=O)cc1Cl,inactive: -1.93%
17,CCc1ccc(N2C(=O)NC(=O)/C(=C\c3cc(C)n(-c4cc(C(=O)O)cc(C(=O)O)c4)c3C)C2=O)cc1,inactive: -5.26%
8,COC(=O)C1=C(c2ccc(OCc3ccccc3)cc2)C[C@@H]2CC[C@H]1N2C(=O)NCc1ccc([N+](=O)[O-])cc1,inactive: 4.6%
